Experimental data published in the supplement of paper PMC11348887.
Structures can show the parent of a compound that is named as a salt. This is one part of the list. Most entries show no effect beyond the scatter of the controls.

Columns and labels:
Conditions in all cases: 5 µM; treatment: days 7-14 after plating, readout day 21
[1] = tested on: hPSC-derived cortical neurons (WA09); experiment: nucleus area z-score vs screen plate; higher = larger nuclei (more mature)
[2] = tested on: hPSC-derived cortical neurons (WA09); experiment: total neurite length per nucleus (MAP2) z-score; higher = more neurite growth
[3] = tested on: hPSC-derived cortical neurons (WA09); experiment: nucleus roundness z-score vs screen plate; higher = rounder nuclei (more mature)
[4] = tested on: hPSC-derived cortical neurons (WA09); experiment: KCl-induced FOS+/EGR-1+ double-positive nuclei fraction z-score (KCl minus unstimulated); higher = stronger activity-induced IEG response

Row | Structure (SMILES) | nucleus area z-score [1] | total neurite length per nucleus (z-score) [2] | nucleus roundness z-score [3] | KCl-induced FOS+/EGR-1+ double-positive nuclei fraction z-score [4]
1 | CCOC(=O)c1ccc(N2NC(=O)C(=Cc3ccc([N+](=O)[O-])o3)C2=O)cc1 | 0.611 | 1.23 | 0.213 | 2.83
2 | CCCC[S+]([O-])c1sc2nc(-c3cccs3)cc(-c3ccccc3)c2c1N (stereo unspecified) | -0.493 | -0.224 | -0.44 | 1.57
3 | CC(C)[C@H](N)C(=O)OCC(CO)OCn1cnc2c(=O)[nH]c(N)nc21 (stereo partly specified) [Valganciclovir HCl] | -1.01 | -0.425 | -0.284 | -0.838
4 | O=C(NC[C@H](O)CN1CCc2ccccc2C1)c1cc(NC2COC2)ncn1 | 0.202 | -0.166 | 0.219 | 4.16
5 | CC1(C)[C@H](C(=O)O)N2C(=O)C[C@H]2S1(=O)=O [Sulbactam] | 0.0954 | -0.429 | 0.35 | -1.38
6 | CCn1cc(C(=O)O)c(=O)c2cc(F)c(N3CCN(C)CC3)cc21 [Pefloxacin Mesylate] | -0.562 | -0.446 | -0.0969 | -0.709
7 | CC(C)NCC(O)COc1ccc(CCOCC2CC2)cc1 (stereo unspecified) [Betaxolol] | 0.731 | -0.565 | 0.254 | 0.648
8 | Nc1nc2c(cnn2CCc2ccccc2)c2nc(-c3ccco3)nn12 | 2.04 | 0.0646 | -1.22 | 0.303
9 | CN[C@@H]1[C@H](O[C@H]2[C@H](O[C@H]3[C@H](O)[C@@H](O)[C@H](N=C(N)N)[C@@H](O)[C@@H]3N=C(N)N)O[C@@H](C)[C@]2(O)C=O)O[C@@H](CO)[C@H](O)[C@H]1O [Streptomycin sulfate] | -0.413 | 0.917 | 0.408 | -0.0906
10 | CC(=O)c1cc([N+](=O)[O-])c(Sc2cccc(Cl)c2Cl)s1 | 2.66 | -0.447 | -0.436 | -0.408
11 | COc1cccc2cc(-c3nc([C@H]4CC[C@H](C(=O)O)CC4)n4ncnc(N)c34)[nH]c12 | -0.565 | -0.641 | -1.28 | -0.0869
12 | CC(=O)NO [Acetohydroxamic acid] | 0.0697 | 0.367 | 0.866 | 0.25
13 | Nc1ccn([C@@H]2O[C@H](CO)[C@@H](O)[C@@H]2O)c(=O)n1 [Cytarabine] | 1.56 | 2.81 | 0.437 | 1.74
14 | C=CC(=O)Nc1ccc(CN2C(=O)N(c3cc(OC)cc(OC)c3)Cc3cnc(Nc4ccc(N5CCN(C)CC5)cc4)nc32)cc1 | -11.1 | -4.74 | -4.5 | -2.18
15 | O=C(O)CC[C@H]1CC[C@@](c2cc(F)ccc2F)(S(=O)(=O)c2ccc(Cl)cc2)CC1 | 1.36 | -0.42 | -1.97 | 0.465
16 | O=C(Nc1cccnc1)c1cc(-c2ccnc(F)c2)ccc1OCc1ccccc1 | 0.848 | 2.79 | 2.98 | 4.48
17 | C/C=C1\NC(=O)[C@H]2CSSCC/C=C/[C@H](CC(=O)N[C@H](C(C)C)C(=O)N2)OC(=O)[C@H](C(C)C)NC1=O [Romidepsin (FK228_ Depsipeptide)] | -13.1 | -4.61 | -0.501 | -0.41
18 | CC(C)(C)NC[C@H](O)COc1nsnc1N1CCOCC1 [Timolol Maleate] | 0.623 | -0.117 | 0.206 | -0.726
19 | O=C(O)c1cc(O)c(O)c(O)c1 [Gallic acid] | 1.11 | 0.166 | -0.00426 | 0.0496
20 | Cc1[nH]nc2ccc(-c3cncc(OC[C@@H](N)Cc4ccccc4)c3)cc12 | -11.7 | -5.82 | -3.08 | -1.68
21 | NNC(=O)c1ccncc1.Nc1ccc(C(=O)O)c(O)c1 [Pasiniazid] | 0.268 | 0.313 | 0.606 | -0.898
22 | O=C(/C=C/c1ccc(O)c(O)c1)OCCc1ccccc1 [Caffeic Acid Phenethyl Ester] | -2.17 | 0.45 | -0.838 | -0.107
23 | NC(=O)NO [Hydroxyurea] | 0.0902 | 0.35 | -0.291 | 0.127
24 | Cc1cc(C(N)=O)ccc1-n1c(CCC(=O)O)ccc1-c1ccc(-n2ccnc2)cc1 | 0.912 | 0.418 | 0.317 | 1.2
25 | COC(=O)N1CCN(Cc2cccc(NC(=O)Nc3ccc(C)nc3)c2F)CC1 | 1.54 | -0.757 | 0.424 | -0.288
26 | Cc1cnc(-c2ccccc2C(C)C)nc1NCc1ccc(-n2ccnn2)cc1 | -0.0196 | -0.529 | -0.285 | -0.332
27 | Cn1nccc1Nc1nccc(-c2ccn([C@H](CO)c3ccc(Cl)c(F)c3)c(=O)c2)n1 | -2.43 | -1.26 | 1.35 | -0.129
28 | Cc1cc(N2CCOCC2)ccc1Nc1nc(NC2CCCCC2)c2[nH]cnc2n1 | -0.547 | 0.00909 | -0.18 | -0.767
29 | CC1=NN(c2ccccc2)C(=O)C1 [Edaravone] | -0.145 | -0.307 | -0.94 | 0.591

Part of the list above, with tabs:
Row	Structure (SMILES)	nucleus area z-score [1]	total neurite length per nucleus (z-score) [2]	nucleus roundness z-score [3]	KCl-induced FOS+/EGR-1+ double-positive nuclei fraction z-score [4]
5	CC1(C)[C@H](C(=O)O)N2C(=O)C[C@H]2S1(=O)=O [Sulbactam]	0.0954	-0.429	0.35	-1.38
6	CCn1cc(C(=O)O)c(=O)c2cc(F)c(N3CCN(C)CC3)cc21 [Pefloxacin Mesylate]	-0.562	-0.446	-0.0969	-0.709
